In the assay the test system is bacterial culture. Put plainly: Minimum inhibitory concentration (MIC), serial 2-fold dilution in 96-well plate. Type of assay: cell-based. Conditions: overnight incubation in TSB, inoculum 0.2 OD. As to the method: The biological activity of the ceragenin and quaternary ammonium compounds can be determined by standard methods known to those of skill in the art, such as the “minimum inhibitory concentration (MIC)” assay, whereby the lowest concentration at which no change in optical density (OD) is observed for a given period of time is recorded as MIC. When the compound alone is tested against a control that lacks the compound, the antimicrobial effect of the compound alone is determined.
To evaluate minimum inhibitory concentrations (MICs), the concentration of the twenty four hour culture in log phase is adjusted by diluting in tryptic soy broth (TSB) so that an optical density of 0.2 at 610nm is obtained. The bacterial culture is then ready to be used for testing.
Three solutions are prepared: (1) 1% CPC solution in ethanol; (2) 1% solution of the Compound of Formula (II) in water; and (3) 0.5% of a Compound of Formula (II) +0.5% CPC. The solutions are diluted 1:9 in TSB. They are added to a 96-well plate and a serial dilution (2-fold) is made across the plate. The bacterial inoculum at 0.2 OD, 1000, is added to every well. The plate is incubated overnight and read on a plate reader the following day.

Broadly, the MIC is the smallest concentration in the dilution series that meets the test's criterion for growth inhibition. Lower therefore signals a more susceptible organism. In turn, `CCCCCCCCCCCCCCCC[n+]1ccccc1` [CPC, cetylpyridinium chloride, reference compound] came in with an MIC of 0.98 µg/mL.
